According to paper PMC6955223, “The adaptor proteins HAP1a and GRIP1 collaborate to activate the kinesin-1 isoform KIF5C” (Journal of Cell Science, 2019):
Results are given in words; binding and its absence hold for the method and conditions named. In cells and extracts the contact can be indirect. Some entries that bind do so weakly or less than the wild type. Where a sequence is shown, tags or fusion partners need not be part of it.

Protein sequences, listed by entry. Tags and fused reporters are not part of them.
UniProt P97879: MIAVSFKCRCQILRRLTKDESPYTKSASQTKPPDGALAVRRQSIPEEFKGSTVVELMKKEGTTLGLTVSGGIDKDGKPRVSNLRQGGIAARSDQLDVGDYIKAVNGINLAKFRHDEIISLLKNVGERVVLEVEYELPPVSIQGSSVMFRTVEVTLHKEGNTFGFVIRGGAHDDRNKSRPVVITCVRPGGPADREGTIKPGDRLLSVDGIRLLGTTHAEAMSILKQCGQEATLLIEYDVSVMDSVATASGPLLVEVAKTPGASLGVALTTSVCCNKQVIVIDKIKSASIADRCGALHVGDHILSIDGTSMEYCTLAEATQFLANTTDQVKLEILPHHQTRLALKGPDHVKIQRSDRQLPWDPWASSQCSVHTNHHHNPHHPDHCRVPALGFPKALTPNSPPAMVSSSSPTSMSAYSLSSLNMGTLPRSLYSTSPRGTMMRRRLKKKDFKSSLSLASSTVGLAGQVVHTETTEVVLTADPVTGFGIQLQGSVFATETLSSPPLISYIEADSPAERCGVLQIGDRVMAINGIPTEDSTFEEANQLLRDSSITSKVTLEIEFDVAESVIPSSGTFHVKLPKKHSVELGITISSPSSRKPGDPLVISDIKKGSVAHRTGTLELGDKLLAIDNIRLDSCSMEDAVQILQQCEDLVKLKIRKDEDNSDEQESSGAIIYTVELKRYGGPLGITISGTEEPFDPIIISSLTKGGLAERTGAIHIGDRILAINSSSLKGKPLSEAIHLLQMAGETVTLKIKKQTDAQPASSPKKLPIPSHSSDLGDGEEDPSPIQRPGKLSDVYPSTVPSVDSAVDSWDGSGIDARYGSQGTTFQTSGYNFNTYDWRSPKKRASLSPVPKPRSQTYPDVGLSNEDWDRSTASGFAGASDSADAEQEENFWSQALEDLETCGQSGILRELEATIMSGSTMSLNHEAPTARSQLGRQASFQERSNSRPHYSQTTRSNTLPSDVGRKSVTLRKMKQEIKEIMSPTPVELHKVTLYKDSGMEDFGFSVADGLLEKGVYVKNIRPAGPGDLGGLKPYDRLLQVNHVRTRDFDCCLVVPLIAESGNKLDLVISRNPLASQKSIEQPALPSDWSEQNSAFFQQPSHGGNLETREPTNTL

Target: GFP–GRIP1a (glutamate receptor interacting protein 1, splice form a) (UniProt P97879)
Experiment: co-IP; co-transfected COS cells; extract in IP buffer (50 mM Tris-HCl pH 7.5, 0.5% Triton X-100, 150 mM NaCl, 1 mM EDTA, 1 mM PMSF), 1 µg antibody for 1 h (anti-GFP in Fig. 1G), Protein G–Sepharose, three washes, western blot

- binding: binds
B1: HA–HAP1a (huntingtin-associated protein 1, isoform a) (protein, UniProt P54256-2 1-599)
chain: MRPKDQVQSSAGDGTGSGDPATGTPTTQPAADPAPEPSAEPKPAPAQGTGSGQKSGSRTKTGGSFCRSRIRGDSDAPWTRYIFQGPYGPRATGLGTGRAEGIWKTPAAYIGRRPGVSGPERAAFIRELQEALCPNPLPRKKITEDDIKVMLYLLEEKERDLNTAARIGQSLVKQNSVLMEENNKLETMLGSAREEILHLRKQVNLRDDLLQLYSDSDDDEEDEEDEEEEEGEEEEREGQRDQDQQHDHPYGAPKPPPKAETLHHCPQLEALKQKLKLLEEENDHLREEASHLDNLEDKEQMLILECVEQFSEASQQMAELSEVLVLRLEGYERQQKEITQLQAEITKLQQRCQSYGAQTEKLQQQLASEKGVHPESLRAGSHMQDYGSRPRERQEDGKSHRQRSSMPAGSVTHYGYSVPLDALPSFPETLAEELRTSLRKFITDPAYFMERCDTRCREERKKEQGTMPPPPVQDLKPPEDFEAPEELVPEEELGAIEEVGTAEDGPAEETEQASEETEAWEEVEPEVDEATRMNVVVSALEASGLGPSHLDMKYVLQQLSNWQDAHSKRQQKQKVVPKGECSRRGHPPASGTSYRSSTL
